Some of the results follow. The exact form of the protein is not confirmed.
Each sequence was assayed against T1, ETS1 (UniProt P14921) (assay: DAPPL (digital affinity profiling via proximity ligation, sequencing)). Conditions: 10 mM Tris-HCl pH 7.5, 50 mM NaCl, 1 mM DTT, 4% glycerol, room temperature, 30 min; GST-TFs on glutathione beads, 16-mer random dsDNA library, 0.1% …; high values mean tight binding; double strand, one strand shown; scale: fold enrichment (6-mer frequency, TF over GST control).
T1 sequence: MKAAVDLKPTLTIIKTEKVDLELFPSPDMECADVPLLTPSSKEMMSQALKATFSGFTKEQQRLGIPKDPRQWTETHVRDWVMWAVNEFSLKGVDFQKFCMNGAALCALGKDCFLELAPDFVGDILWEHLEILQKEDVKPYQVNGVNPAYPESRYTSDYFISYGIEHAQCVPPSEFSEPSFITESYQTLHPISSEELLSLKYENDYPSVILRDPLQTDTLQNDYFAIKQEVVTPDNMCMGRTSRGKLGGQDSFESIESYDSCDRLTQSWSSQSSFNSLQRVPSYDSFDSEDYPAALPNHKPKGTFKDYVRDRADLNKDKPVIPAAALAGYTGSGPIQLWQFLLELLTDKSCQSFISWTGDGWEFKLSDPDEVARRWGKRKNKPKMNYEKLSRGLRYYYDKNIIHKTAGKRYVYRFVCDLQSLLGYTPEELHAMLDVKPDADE

| Sequence | binding signal |
| --- | --- |
| TATTGT | 1.37 |
| GGCCCC | 1.02 |
| CCGACC | 1.6 |
| CTTTCT | 1.31 |
| CCTTTC | 1.65 |
| TGCCTG | 1.27 |
| TTCTGC | 1.47 |
| TGTAAT | 1.26 |
| TTCCTG | 2.36 |
| CCTAAA | 1.37 |
| AAGTCC | 1.24 |
| TGTGTT | 1.05 |
| CCCGCC | 1.44 |
| CGACCG | 1.2 |
| GGTTTT | 1.1 |
| CTAATG | 1.22 |
| CATCTA | 1.23 |
| TTGCAC | 1.26 |
| TACTTC | 3.26 |
| TTCACT | 1.37 |

| Sequence | binding signal |
| --- | --- |
| TAATTT | 1.48 |
| TTCAAA | 1.35 |
| AGCTAC | 1.19 |
| GTCTCA | 1.37 |
| CTTCAG | 1.2 |
| GATGCC | 1.4 |
| TGGTAT | 1.36 |
| CTAGCT | 1.35 |
| TCTGCC | 1.44 |
| ACATAT | 1.32 |
| CACTAA | 1.21 |
| CTCAGA | 1.19 |
| CACGAA | 1.14 |
| TCCTAC | 1.47 |
| CCGCTA | 1.33 |
| CCATAA | 1.28 |
| CTCCTC | 1.42 |
| CTTAGA | 1.15 |
| CGACCC | 1.34 |

Two entries drawn at random from the list so far, as already listed:

| Sequence | binding signal |
| --- | --- |
| CTAATG | 1.22 |
| CATCTA | 1.23 |
